# Changes are numbered by the printed parent chain. For part of these data: Weaker means in comparison with the reference protein, sequence or condition of that experiment. For part of these data: Protein sequences can lack the tags named with them. For part of these data: The exact form of at least one protein or probe is not confirmed.
# Tests used:
# [1] = target: T4 Dda-E94C/A360C helicase E94C/A360C, then (ΔM1)G1G2 (Enterobacteria phage T4) (UniProt P32270); test: EMSA; conditions: 5 iSpC3 at 5' end; 4 iSpC3 between T8 and SEQ 36; purified recombinant protein; label: 5'-FAM on SEQ 35; variant of Table 12 construct 1 (10T region)
# [2] = target: T1, Hel308 Mbu helicase (Methanococcoides burtonii) (UniProt Q12WZ6); test: activity assay; conditions: dsDNA turnover observed; 400 mM KCl, 10 mM MgCl2, ATP; purified recombinant protein; label: 5'-FAM on SEQ 33, 3'-BHQ-1 on SEQ 26
# T1 sequence: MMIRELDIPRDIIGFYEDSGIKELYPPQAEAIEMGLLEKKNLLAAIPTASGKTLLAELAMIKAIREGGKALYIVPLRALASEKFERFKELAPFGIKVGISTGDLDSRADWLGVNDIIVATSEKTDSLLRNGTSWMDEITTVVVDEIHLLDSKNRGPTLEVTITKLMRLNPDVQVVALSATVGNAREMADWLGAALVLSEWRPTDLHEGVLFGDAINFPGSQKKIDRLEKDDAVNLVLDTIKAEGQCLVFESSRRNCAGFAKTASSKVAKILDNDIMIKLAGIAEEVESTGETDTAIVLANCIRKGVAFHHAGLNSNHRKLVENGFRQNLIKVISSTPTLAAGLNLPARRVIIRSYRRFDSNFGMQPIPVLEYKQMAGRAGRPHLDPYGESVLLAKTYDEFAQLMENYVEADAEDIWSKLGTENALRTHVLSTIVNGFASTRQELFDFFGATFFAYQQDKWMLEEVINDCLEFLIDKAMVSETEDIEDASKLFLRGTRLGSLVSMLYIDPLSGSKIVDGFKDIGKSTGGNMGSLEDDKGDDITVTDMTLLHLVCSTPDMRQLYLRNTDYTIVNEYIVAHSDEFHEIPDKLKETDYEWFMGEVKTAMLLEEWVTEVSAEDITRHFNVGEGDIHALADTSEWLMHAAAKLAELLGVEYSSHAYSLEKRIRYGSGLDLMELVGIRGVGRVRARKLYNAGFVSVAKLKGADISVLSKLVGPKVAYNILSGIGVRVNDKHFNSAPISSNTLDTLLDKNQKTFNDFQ
# MuA transposase = MuA transposase (UniProt P07636); test: activity assay; conditions: 4 iSpC3 between SEQ 14 and 15 and between SEQ 19 and 9; dU in SEQ 19; transposed into lambda DNA; 30 C 1 h, 10 mM MgCl2; purified recombinant protein; protein details: Thermo, catalogue No. F-750C
# [3] = system: T2, TrwC Cba Q276C-3.4 kDa dimer (Citromicrobium bathyomarinum); test: activity assay; conditions: 28 iSpC3 between TT and SEQ 23; 4 iSpC3 between SEQ 23 and SEQ 24; SEQ 12 3' six iSp18-TT-cholesterol TEG; nanopore helicase-controlled movement; 20% long dwell movements; 10 mM MgCl2, 5 mM dTTP, 625 mM KCl; purified recombinant protein
# T2 sequence (limits assumed): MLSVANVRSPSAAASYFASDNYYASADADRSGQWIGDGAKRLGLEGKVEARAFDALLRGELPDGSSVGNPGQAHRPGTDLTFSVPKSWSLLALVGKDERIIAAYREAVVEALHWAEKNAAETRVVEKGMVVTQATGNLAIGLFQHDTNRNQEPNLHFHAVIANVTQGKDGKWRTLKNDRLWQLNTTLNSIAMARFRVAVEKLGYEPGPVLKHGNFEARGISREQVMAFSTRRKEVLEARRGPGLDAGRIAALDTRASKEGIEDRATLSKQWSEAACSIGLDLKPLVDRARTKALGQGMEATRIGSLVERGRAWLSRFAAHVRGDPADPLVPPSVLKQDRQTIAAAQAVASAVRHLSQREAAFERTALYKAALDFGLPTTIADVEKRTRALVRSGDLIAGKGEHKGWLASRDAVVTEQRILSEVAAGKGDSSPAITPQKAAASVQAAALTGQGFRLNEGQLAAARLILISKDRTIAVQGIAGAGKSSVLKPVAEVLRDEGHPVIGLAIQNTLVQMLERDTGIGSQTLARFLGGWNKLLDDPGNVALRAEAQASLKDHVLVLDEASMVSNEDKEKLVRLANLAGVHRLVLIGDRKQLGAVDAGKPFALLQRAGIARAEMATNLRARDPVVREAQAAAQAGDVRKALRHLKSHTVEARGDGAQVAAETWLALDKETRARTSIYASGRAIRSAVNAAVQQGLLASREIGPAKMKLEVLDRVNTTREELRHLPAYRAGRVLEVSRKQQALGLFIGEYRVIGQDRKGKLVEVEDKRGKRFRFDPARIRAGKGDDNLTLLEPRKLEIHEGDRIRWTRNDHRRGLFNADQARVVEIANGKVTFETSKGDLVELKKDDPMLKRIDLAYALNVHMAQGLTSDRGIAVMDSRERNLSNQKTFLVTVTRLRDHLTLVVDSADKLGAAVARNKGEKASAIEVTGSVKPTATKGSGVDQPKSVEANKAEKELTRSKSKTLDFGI
# [4] = system: T3, TrwC Cba helicase (monomer) (Citromicrobium bathyomarinum); test: activity assay; conditions: 28 iSpC3 between TT and SEQ 23; 4 iSpC3 between SEQ 23 and SEQ 24; SEQ 12 3' six iSp18-TT-cholesterol TEG; nanopore helicase-controlled movement; 5% long dwell movements; 10 mM MgCl2, 5 mM dTTP, 625 mM KCl; purified recombinant protein
# T3 sequence (limits assumed): T2 sequence (limits assumed) with C276Q
# [5] = target: T4 Dda-E94C/A360C helicase E94C/A360C, then (ΔM1)G1G2 (Enterobacteria phage T4) (UniProt P32270); test: activity assay; conditions: 25 SpC3 at 5' end; 4 iSp18 between SEQ 38 and SEQ 10; 4 5-nitroindoles between SEQ 10 and SEQ 41; SEQ 12 3' six iSp18-TT-cholesterol TEG; helicase-controlled movement through MspA nanopore; 10 mM MgCl2, 1 mM ATP, 600 mM KCl, 30 C; purified recombinant protein
sequence,measurement,setting,value
TTTTTTTTTCGCTGCTCCACAGGTCTCAGCTTGAGCAGCGA / TCGCTGCTCAAGCTGAGACCTGTGGAGCAGCGA [Table 12 construct 6 (8T region)],binding result,[1],binds more weakly
CTATTCTGTTTATGTTTCTTGTTTGTTAGCCCTATTCTGTCCCCCCCCCC / ACAGAATAGGGCTAACAAACAAGAAACATAAACAGAATAG [Substrate G],activity on this sequence,[2],active
TTTTTTTTTTTTTTTTTTTTTTTTTTTTTTTTTTTTTTTTTTTTTTTTTTGGTTGTTTCTGTTGGTGCTGATATTGCGTTTTCGCATTTATCGTGAAACGCTTTCGCGTTTTTCGTGCGCCGCTTCA / GATCUGAAGCGGCGCACGAAAAACGCGAAAGCGTTTCACGATAAATGCGAAAACTTTTTTTTTTTTTTTTTTTTTTTTTTTTTTTTTTTTTTTTTTTTTTTTTT [Y-shaped MuA substrate (Example 2)],activity on this sequence,MuA transposase,active
TTTTTTTTTTTTTTTTTTTTTTTTTTTTTTTTTTTTTTTTTTTTTTTTGGTTGTTTCTGTTGGTGCTGATATTGCGCCATCAGATTGTGTTTGTTAGTCGCTTTTTTTTTTTGGAATTTTTTTTTTGGAATTTTTTTTTTGACGCTCAGTAATGTGACGATAGCTGAAAACTGTACGATAAACGGTACGCTGAGGGCGGAAAAAATCGTCGGGGACATTGTAAAGGCGGCGAGCGCGGCTTTTCCGCGCCAGCGTGAAAGCAGTGTGGACTGGCCGTCAGGTACCCGTACTGTCACCGTGACCGATGACCATCCTTTTGATCGCCAGATAGTGGTGCTTCCGCTGACGTTTCGCGGAAGTAAGCGTACTGTCAGCGGCAGGACAACGTATTCGATGTGTTATCTGAAAGTACTGATGAACGGTGCGGTGATTTATGATGGCGCGGCGAACGAGGCGGTACAGGTGTTCTCCCGTATTGTTGACATGCCAGCGGGTCGGGGAAACGTGATCCTGACGTTCACGCTTACGTCCACACGGCATTCGGCAGATATTCCGCCGTATACGTTTGCCAGCGATGTGCAGGTTATGGTGATTAAGAAACAGGCGCTGGGCATCAGCGTGGTCTGAGTGTGAAAAAAAAGGTACCAAAAAAAACATCGTCGTGAGTAGTGAACCGTAAGC / GCAATATCAGCACCAACAGAAACAACCT [Example 4 construct],activity on this sequence,[3],active
same,activity on this sequence,[4],active
TTTTTTTTTTTTTTTTTTTTGGTTGTTTCTGTTGGTGCTGATATTGCGCCATCAGATTGTGTTTGTTAGTCGCT / GCAATATCAGCACCAACAGAAACAACCT / AGCGACTAACAAACACAATCTGATGGC [DNA construct X1],activity on this sequence,[5],active
